# Structures can show the parent of a compound that is named as a salt. Some of the results follow. Repeats in this data set agree poorly, so a single value says little.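 Cells: ReNCell VM human fetal ventral-midbrain neural progenitors, differentiated mitogen-free. Blinded raters compared doublecortin-stained (early neurons) or tyrosine hydroxylase-stained (dopaminergic neurons) images with untreated wells, where 0 means no change. After repeats and both raters were averaged, compounds scoring 2 or above became hits for retesting.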
# Tested on: ReNCell VM
# Assay: neuronal differentiation score (DCX+ cell fraction vs untreated, manual image score) (score (-3 to 3)); higher = more neuronal differentiation
# Conditions: library: LOPAC; 2 uM; 2 weeks
row,SMILES,neuronal differentiation score
1,"Nc1ccc2c3c(cccc13)C(=O)NC2=O [4-Amino-1,8-naphthalimide]",inactive: 0
2,CNCC[C@@H](Oc1ccccc1C)c1ccccc1 [Tomoxetine],inactive: 0
3,Fc1ccc([C@@H]2CCNC[C@H]2COc2ccc3c(c2)OCO3)cc1 [Paroxetine hydrochloride hemihydrate (MW = 374.83)],inactive: 0
4,CCCCCCCC/C=C\CCCCCCCC(=O)NCCc1ccc(O)c(O)c1 [N-Oleoyldopamine],inactive: 0
5,CNc1cc(NS(=O)(=O)c2ccc(N)cc2)nc(NC)n1 [Ro 04-6790 dihydrochloride],inactive: 0
6,COCc1nc2c([nH]1)c(=O)n(C)c(=O)n2CC(C)C [8-Methoxymethyl-3-isobutyl-1-methylxanthine],inactive: 0
7,CN1[C@@H](CC(=O)c2ccccc2)CCC[C@H]1C[C@H](O)c1ccccc1 [alpha-Lobeline hydrochloride],inactive: 0
8,CNCCNS(=O)(=O)c1cccc2cnccc12 [H-8 dihydrochloride],inactive: 0
9,"CC(=O)/C(C)=N/O [2,3-Butanedione monoxime]",inactive: 0

# Exported as tab-separated lines: entries from further up
row	SMILES	neuronal differentiation score
2	CNCC[C@@H](Oc1ccccc1C)c1ccccc1 [Tomoxetine]	inactive: 0
3	Fc1ccc([C@@H]2CCNC[C@H]2COc2ccc3c(c2)OCO3)cc1 [Paroxetine hydrochloride hemihydrate (MW = 374.83)]	inactive: 0

# Same assay, conditions: library: Prestwick; 2 uM; 2 weeks
row,SMILES,neuronal differentiation score
1,CN1C(=O)OC(C)(C)C1=O [Trimethadione],inactive: 0
2,CO[C@H]1/C=C/O[C@@]2(C)Oc3c(C)c(O)c4c(O)c(c5c(nc6cc(C)ccn65)c4c3C2=O)NC(=O)/C(C)=C\C=C\[C@H](C)[C@H](O)[C@@H](C)[C@@H](O)[C@@H](C)[C@H](OC(C)=O)[C@@H]1C [Rifaximin],inactive: 0
3,CC[C@H](C)C(=O)O[C@H]1C[C@H](O)C=C2C=C[C@H](C)[C@H](CC[C@@H](O)C[C@@H](O)CC(=O)O)[C@H]21 [Pravastatin],inactive: 0
4,NS(=O)(=O)c1cc2c(cc1C(F)(F)F)NCNS2(=O)=O [Hydroflumethiazide],inactive: 0
5,C#Cc1cccc(Nc2ncnc3cc(OCCOC)c(OCCOC)cc23)c1 [Erlotinib],inactive: 0
6,CNCC(O)c1ccc(OC(=O)C(C)(C)C)c(OC(=O)C(C)(C)C)c1 (stereo not drawn) [Dipivefrin hydrochloride],inactive: 0
7,N=C(N)NCCN1CCCCCCC1 [Guanethidine sulfate],inactive: 0
8,CC(N)CCCC(C)(C)O (stereo not drawn) [Heptaminol hydrochloride],inactive: 0
9,O=C(O)CCC(=O)c1ccc(-c2ccccc2)cc1 [Fenbufen],inactive: 0
